± gives the standard deviation of the averaged measurements. This is a selection; strong and weak results do not stand in their true shares. Most values lie at the level of the controls, where differences are scatter.
Compound: Nc1ncnc2c1ncn2[C@@H]1O[C@H](COP(=O)(O)OP(=O)(O)OP(=O)(O)O)[C@@H](O)[C@H]1O [adenosine triphosphate]
Assay: NP40-soluble protein abundance relative to vehicle (solubility fold change) (ratio); higher = more soluble protein in presence of ATP
Details: concentration: 0.1mM
Outline: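 Jurkat crude lysate (Dounce-homogenised) was treated with eight concentrations from 0.1 to 10 mM for 10 min at room temperature, then 3 min at 37 °C. It was solubilised with 0.8% NP40 and benzonase (60 min, 4 °C) and ultracentrifuged, and the supernatant was TMT-labelled for LC-MS/MS. Intensities were vsn-normalised, and the value is the fold change against the NP40-processed vehicle per replicate, from three independent experiments.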

By UniProt entry, the sequences of proteins in these tests, tags left out. Where a name states a change or a piece, a line headed by the entry shows the natural chain unless it says otherwise.
UniProt P47224: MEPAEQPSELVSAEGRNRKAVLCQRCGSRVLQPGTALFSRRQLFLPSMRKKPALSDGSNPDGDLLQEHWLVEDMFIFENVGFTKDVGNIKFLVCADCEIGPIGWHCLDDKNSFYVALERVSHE
UniProt P48637: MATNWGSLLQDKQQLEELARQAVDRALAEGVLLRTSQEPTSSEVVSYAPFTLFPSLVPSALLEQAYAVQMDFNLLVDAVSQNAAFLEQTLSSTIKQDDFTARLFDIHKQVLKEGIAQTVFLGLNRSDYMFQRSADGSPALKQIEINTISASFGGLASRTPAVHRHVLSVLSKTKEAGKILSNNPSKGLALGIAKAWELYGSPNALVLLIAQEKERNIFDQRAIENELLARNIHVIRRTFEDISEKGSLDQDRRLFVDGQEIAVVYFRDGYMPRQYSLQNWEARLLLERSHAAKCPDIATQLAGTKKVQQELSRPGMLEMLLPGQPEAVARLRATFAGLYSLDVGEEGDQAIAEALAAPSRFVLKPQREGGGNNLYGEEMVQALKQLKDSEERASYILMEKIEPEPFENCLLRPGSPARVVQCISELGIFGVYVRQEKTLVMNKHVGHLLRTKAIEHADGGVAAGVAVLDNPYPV
UniProt P48634: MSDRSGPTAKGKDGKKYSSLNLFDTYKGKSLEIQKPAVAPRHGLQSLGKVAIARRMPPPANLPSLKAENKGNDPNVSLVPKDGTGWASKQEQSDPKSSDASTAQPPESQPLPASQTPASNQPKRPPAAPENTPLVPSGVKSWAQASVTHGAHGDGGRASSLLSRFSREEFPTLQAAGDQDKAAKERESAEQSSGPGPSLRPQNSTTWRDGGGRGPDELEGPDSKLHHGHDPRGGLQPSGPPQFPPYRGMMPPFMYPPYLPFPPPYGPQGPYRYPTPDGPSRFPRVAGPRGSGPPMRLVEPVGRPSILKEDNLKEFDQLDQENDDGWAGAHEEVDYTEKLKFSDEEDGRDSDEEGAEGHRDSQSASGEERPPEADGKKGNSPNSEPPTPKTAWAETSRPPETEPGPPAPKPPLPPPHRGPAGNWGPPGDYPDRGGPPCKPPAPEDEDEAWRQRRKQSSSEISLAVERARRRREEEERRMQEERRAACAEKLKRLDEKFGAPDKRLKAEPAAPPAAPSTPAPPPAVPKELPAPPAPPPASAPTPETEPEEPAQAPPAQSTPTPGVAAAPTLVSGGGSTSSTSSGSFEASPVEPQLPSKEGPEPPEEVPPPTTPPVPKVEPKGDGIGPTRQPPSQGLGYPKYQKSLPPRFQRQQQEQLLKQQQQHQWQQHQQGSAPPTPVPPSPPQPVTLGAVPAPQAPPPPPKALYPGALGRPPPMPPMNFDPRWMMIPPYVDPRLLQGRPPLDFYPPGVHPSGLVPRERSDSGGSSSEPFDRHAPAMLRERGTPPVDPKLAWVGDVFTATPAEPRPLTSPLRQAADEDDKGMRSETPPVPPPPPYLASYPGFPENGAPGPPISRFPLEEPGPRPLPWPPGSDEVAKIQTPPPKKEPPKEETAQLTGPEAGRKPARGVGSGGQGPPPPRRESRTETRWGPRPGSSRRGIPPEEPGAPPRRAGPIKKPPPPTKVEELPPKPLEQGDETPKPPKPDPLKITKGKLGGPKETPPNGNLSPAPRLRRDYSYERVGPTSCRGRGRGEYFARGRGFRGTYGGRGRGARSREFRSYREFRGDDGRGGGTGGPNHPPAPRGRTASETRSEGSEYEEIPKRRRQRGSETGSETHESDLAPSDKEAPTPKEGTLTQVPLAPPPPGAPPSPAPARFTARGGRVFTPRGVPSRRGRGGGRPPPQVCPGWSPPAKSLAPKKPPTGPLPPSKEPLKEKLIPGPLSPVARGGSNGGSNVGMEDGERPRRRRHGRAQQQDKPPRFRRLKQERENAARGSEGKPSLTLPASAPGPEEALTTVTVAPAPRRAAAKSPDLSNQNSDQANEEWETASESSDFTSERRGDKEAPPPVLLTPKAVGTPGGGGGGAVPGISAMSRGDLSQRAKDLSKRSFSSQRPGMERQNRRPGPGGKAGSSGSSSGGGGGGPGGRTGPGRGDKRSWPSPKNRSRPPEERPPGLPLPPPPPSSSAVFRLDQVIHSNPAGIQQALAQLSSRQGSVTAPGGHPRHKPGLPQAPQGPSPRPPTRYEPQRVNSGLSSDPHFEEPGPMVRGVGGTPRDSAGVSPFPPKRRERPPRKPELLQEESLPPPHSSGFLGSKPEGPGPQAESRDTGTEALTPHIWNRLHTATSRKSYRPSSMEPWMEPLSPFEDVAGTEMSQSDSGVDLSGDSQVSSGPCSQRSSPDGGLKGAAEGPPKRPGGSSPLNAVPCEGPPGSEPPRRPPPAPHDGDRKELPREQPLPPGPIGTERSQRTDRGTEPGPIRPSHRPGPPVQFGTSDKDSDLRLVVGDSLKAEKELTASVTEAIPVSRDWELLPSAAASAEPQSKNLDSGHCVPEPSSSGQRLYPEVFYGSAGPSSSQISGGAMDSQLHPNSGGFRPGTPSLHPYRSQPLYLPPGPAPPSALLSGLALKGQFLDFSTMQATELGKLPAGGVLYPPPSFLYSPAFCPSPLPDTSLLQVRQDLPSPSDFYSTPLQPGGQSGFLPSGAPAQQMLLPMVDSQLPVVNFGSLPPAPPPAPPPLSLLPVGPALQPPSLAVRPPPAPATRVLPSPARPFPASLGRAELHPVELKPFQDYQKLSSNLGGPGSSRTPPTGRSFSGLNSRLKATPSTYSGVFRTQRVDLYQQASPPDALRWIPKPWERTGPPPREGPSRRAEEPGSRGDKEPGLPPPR
UniProt P48426: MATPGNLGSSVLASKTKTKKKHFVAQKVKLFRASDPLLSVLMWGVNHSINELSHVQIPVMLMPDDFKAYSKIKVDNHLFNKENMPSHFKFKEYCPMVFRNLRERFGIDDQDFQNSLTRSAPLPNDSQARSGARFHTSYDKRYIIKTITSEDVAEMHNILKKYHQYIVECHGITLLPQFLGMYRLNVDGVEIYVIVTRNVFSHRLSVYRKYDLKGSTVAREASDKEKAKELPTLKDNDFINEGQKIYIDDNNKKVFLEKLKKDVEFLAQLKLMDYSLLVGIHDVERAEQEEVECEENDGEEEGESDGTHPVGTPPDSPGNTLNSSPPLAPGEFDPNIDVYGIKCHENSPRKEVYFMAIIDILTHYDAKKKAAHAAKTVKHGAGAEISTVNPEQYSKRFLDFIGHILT
UniProt P41134: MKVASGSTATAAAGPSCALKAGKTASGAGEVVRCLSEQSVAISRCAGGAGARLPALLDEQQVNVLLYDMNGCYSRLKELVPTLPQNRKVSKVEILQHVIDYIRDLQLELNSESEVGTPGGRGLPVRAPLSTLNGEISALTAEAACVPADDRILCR
UniProt P51572: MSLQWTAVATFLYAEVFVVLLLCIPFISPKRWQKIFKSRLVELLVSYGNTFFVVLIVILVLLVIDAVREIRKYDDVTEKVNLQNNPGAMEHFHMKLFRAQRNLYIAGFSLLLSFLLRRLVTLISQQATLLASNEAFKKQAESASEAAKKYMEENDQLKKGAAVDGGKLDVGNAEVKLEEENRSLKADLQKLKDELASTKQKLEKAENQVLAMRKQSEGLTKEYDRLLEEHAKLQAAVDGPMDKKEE
UniProt P39880: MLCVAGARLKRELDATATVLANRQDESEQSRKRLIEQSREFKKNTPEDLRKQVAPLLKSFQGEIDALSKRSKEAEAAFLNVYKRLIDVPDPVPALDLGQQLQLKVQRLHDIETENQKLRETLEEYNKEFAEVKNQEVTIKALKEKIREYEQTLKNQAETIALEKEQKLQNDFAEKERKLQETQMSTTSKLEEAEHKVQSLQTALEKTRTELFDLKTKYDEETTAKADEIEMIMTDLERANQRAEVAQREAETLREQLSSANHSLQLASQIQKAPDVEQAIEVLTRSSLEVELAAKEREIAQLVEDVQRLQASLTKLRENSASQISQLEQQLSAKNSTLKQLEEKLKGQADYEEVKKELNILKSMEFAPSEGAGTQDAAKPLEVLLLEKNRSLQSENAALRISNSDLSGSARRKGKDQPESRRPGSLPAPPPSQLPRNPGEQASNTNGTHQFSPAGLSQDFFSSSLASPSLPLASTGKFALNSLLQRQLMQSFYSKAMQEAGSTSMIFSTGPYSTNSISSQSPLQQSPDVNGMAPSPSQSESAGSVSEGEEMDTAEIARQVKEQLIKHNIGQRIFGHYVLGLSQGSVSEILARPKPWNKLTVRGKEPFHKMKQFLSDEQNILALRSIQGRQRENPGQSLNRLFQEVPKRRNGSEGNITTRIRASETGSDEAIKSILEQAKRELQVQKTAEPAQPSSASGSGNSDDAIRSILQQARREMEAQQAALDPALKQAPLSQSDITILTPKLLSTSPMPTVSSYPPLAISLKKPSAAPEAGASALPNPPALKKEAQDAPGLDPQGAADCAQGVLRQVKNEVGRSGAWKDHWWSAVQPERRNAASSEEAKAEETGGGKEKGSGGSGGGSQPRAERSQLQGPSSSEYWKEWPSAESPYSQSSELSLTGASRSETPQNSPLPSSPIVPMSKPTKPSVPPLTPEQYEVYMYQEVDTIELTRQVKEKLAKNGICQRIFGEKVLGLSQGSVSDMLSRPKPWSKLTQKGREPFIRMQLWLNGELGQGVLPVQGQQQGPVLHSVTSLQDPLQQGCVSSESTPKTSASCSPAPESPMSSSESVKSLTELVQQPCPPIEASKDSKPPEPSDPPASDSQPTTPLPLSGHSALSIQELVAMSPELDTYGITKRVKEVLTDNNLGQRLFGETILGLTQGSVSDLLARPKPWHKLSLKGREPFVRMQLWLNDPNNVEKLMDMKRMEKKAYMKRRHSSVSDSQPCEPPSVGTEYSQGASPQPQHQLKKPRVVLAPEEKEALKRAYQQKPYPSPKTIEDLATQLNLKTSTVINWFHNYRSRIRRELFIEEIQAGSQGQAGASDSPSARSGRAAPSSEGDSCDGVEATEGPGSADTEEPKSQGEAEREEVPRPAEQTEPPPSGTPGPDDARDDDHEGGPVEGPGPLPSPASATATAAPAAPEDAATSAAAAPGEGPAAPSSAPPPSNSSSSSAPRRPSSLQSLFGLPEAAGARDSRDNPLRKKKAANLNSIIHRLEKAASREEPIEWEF
UniProt Q13948: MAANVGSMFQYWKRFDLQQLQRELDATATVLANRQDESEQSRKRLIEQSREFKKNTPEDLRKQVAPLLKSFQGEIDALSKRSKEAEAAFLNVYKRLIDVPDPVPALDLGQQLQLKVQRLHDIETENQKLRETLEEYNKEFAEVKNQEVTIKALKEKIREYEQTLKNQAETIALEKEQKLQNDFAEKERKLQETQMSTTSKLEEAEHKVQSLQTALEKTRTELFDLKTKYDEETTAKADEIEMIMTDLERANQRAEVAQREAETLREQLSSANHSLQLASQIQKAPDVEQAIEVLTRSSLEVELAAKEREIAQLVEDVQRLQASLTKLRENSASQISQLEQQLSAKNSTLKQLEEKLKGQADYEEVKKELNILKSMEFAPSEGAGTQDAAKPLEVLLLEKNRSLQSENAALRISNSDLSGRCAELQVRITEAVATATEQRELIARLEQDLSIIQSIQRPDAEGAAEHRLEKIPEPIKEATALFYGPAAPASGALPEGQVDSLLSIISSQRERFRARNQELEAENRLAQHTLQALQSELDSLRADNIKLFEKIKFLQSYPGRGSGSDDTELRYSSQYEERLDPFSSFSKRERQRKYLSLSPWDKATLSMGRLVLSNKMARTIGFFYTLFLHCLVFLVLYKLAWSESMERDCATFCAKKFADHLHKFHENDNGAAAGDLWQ
UniProt P49841: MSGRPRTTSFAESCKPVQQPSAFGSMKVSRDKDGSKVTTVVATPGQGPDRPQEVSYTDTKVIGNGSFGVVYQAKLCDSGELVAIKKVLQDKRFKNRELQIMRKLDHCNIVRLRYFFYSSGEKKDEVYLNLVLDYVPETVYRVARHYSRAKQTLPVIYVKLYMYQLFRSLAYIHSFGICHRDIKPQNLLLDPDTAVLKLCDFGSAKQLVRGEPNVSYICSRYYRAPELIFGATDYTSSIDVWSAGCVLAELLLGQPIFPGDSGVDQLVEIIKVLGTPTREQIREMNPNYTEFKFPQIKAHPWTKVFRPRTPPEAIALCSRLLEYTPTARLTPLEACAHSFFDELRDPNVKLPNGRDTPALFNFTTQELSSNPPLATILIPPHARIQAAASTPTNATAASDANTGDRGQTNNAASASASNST
UniProt P50454: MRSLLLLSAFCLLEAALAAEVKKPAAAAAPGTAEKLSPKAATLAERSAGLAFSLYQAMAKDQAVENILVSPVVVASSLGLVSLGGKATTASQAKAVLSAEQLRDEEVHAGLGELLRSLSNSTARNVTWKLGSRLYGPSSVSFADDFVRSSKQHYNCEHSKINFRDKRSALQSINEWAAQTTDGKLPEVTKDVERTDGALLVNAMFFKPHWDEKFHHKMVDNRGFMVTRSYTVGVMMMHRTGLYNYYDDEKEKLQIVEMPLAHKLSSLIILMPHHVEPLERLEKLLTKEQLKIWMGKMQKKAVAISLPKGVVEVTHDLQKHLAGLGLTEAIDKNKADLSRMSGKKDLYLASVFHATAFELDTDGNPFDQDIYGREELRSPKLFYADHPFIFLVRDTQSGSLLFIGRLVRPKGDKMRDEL

Target	NP40-soluble protein abundance
UniProt P49116 and related entries	1.03 ± 0.046
RABIF (UniProt P47224)	1.06 ± 0.062
GSS (UniProt P48637)	1.04 ± 0.078
UniProt P48634 and related entries	0.987 ± 0.038
MARCKSL1 (UniProt P49006)	1.05 ± 0.11
GDI2 (UniProt P50395)	1.05 ± 0.091
PPP1R2 (UniProt P41236)	0.874 ± 0.14
MLH1 (UniProt P40692)	1.21 ± 0.025
UniProt P46108 and related entries	1.06 ± 0.038
PPOX (UniProt P50336)	1.13 ± 0.15
UniProt P42331-4|P42331	1.02 ± 0.012
NUP62 (UniProt P37198)	0.9848 ± 0.008
ALDH9A1 (UniProt P49189)	1.03 ± 0.066
STAT6 (UniProt P42226)	1.022 ± 0.006
UniProt P51148 and related entries	1.03 ± 0.056
UniProt P47756-2	1.01 ± 0.024
NUP153 (UniProt P49790)	0.982 ± 0.016
PIK3CA (UniProt P42336)	1.06 ± 0.086
RECQL (UniProt P46063)	1.04 ± 0.11

Target	NP40-soluble protein abundance
UniProt P52209 and related entries	0.993 ± 0.054
PIP4K2A (UniProt P48426)	0.98 ± 0.052
UniProt P49757 and related entries	1.028 ± 0.0086
UniProt P41134 and related entries	0.846 ± 0.14
NOTCH1 (UniProt P46531)	1.01 ± 0.018
UniProt P46939 and related entries	0.9697 ± 0.0074
UniProt P41229 and related entries	1.03 ± 0.018
UniProt P51572 and related entries	0.876 ± 0.071
UniProt P42684 and related entries	0.972 ± 0.073
NSF (UniProt P46459)	1.03 ± 0.049
P39880-3|Q13948 and related entries (UniProt Q13948+P39880)	0.96 ± 0.039
IQGAP1 (UniProt P46940)	0.993 ± 0.067
UniProt P49841 and related entries	1.04 ± 0.046
RBM5 (UniProt P52756)	1.02 ± 0.041
PTDSS1 (UniProt P48651)	0.917 ± 0.021
UniProt P36956 and related entries	1.03 ± 0.1
PCYT1A (UniProt P49585)	1.01 ± 0.035
SERPINH1 (UniProt P50454)	1.01 ± 0.011

Same assay, conditions: concentration: 0.5mM

Target	NP40-soluble protein abundance
UniProt P49116 and related entries	1.04 ± 0.04
RABIF (UniProt P47224)	0.993 ± 0.044
GSS (UniProt P48637)	1.05 ± 0.068
UniProt P48634 and related entries	1.06 ± 0.048
MARCKSL1 (UniProt P49006)	0.896 ± 0.1
GDI2 (UniProt P50395)	1.04 ± 0.049
PPP1R2 (UniProt P41236)	0.84 ± 0.14
MLH1 (UniProt P40692)	1.32 ± 0.037
UniProt P46108 and related entries	1.04 ± 0.046
PPOX (UniProt P50336)	1.02 ± 0.073
UniProt P42331-4|P42331	1.02 ± 0.06
NUP62 (UniProt P37198)	0.955 ± 0.059
ALDH9A1 (UniProt P49189)	1.04 ± 0.06
STAT6 (UniProt P42226)	1.02 ± 0.014
UniProt P51148 and related entries	1.04 ± 0.048
UniProt P47756-2	1.02 ± 0.058
NUP153 (UniProt P49790)	0.993 ± 0.07
PIK3CA (UniProt P42336)	1.05 ± 0.11
RECQL (UniProt P46063)	1.03 ± 0.027

Target	NP40-soluble protein abundance
UniProt P52209 and related entries	1.02 ± 0.024
PIP4K2A (UniProt P48426)	1.03 ± 0.07
UniProt P49757 and related entries	1.17 ± 0.047
UniProt P41134 and related entries	0.88 ± 0.08
NOTCH1 (UniProt P46531)	0.976 ± 0.067
UniProt P46939 and related entries	0.996 ± 0.033
UniProt P41229 and related entries	1.02 ± 0.02
UniProt P51572 and related entries	0.865 ± 0.06
UniProt P42684 and related entries	1.079 ± 0.0085
NSF (UniProt P46459)	1.04 ± 0.055
P39880-3|Q13948 and related entries (UniProt Q13948+P39880)	0.957 ± 0.034
IQGAP1 (UniProt P46940)	1.02 ± 0.037
UniProt P49841 and related entries	0.963 ± 0.053
RBM5 (UniProt P52756)	1.106 ± 0.011
PTDSS1 (UniProt P48651)	1.06 ± 0.058
UniProt P36956 and related entries	0.974 ± 0.086
PCYT1A (UniProt P49585)	1.02 ± 0.066
SERPINH1 (UniProt P50454)	1.02 ± 0.014

— the supplement of paper PMC6411743
